From the supplement of paper PMC10011410
These are raw signals, not scaled to a control.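 Each value averages three technical replicates run on separate plates. Reagent-free control wells on every plate corrected for the cells' own fluorescence, and DMSO-treated wells served as vehicle controls. No active or hit threshold is defined for these live-cell readings.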

Experiments:
U-2 OS [1] = experiment: AUC of caspase 3/7-positive object count (AUC (object count x time)); higher = more apoptotic or dead cells
Experimental: (§1)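 Live-cell Incucyte imaging of U-2 OS cells with Caspase-3/7 Green and Cytotox Red reagents. Compounds were tested mostly at 5, 10 and 20 uM, and cells were imaged every 4 h for up to 60 h. Value is the area under the curve of positive object counts over time, per channel: green = caspase 3/7, red = membrane-compromised, overlap = both.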

U-2 OS [2] = experiment: AUC of Cytotox red (membrane-compromised) object count (AUC (object count x time)); higher = more apoptotic or dead cells
Experimental: as §1

Compound	AUC of caspase 3/7-positive object count (U-2 OS [1]; 5 µM)	AUC of caspase 3/7-positive object count (U-2 OS [1]; 10 µM)	AUC of caspase 3/7-positive object count (U-2 OS [1]; 20 µM)	AUC of Cytotox red (U-2 OS [2]; 5 µM)	AUC of Cytotox red (U-2 OS [2]; 10 µM)	AUC of Cytotox red (U-2 OS [2]; 20 µM)	AUC of caspase 3/7-positive object count (U-2 OS [1]; 40 µM)	AUC of caspase 3/7-positive object count (U-2 OS [1]; 80 µM)	AUC of Cytotox red (U-2 OS [2]; 40 µM)	AUC of Cytotox red (U-2 OS [2]; 80 µM)	AUC of caspase 3/7-positive object count (U-2 OS [1]; 0.625 µM)	AUC of caspase 3/7-positive object count (U-2 OS [1]; 1.25 µM)	AUC of caspase 3/7-positive object count (U-2 OS [1]; 2.5 µM)	AUC of Cytotox red (U-2 OS [2]; 0.625 µM)	AUC of Cytotox red (U-2 OS [2]; 1.25 µM)	AUC of Cytotox red (U-2 OS [2]; 2.5 µM)
Cn1nnnc1SC1=CS(=O)(=O)c2ccccc21	178	946	1140	252	1180	1600	–	–	–	–	–	–	–	–	–	–
CC(=O)OC1C(c2ccc(=O)oc2)C2(C)CCC3C(CCC4CC(O)CCC43C)C23OC13 (stereo unspecified)	65.5	74.7	86.3	37.5	65.3	62.4	–	–	–	–	–	–	–	–	–	–
COC1=C2C[C@@H](C)C[C@H](OC)[C@H](O)[C@@H](C)/C=C(\C)[C@H](OC(N)=O)[C@@H](OC)/C=C\C=C(/C)C(=O)NC(=CC1=O)C2=O	589	599	613	363	270	181	–	–	–	–	–	–	–	–	–	–
O=C(NNS(=O)(=O)c1ccccc1)c1cc(-c2ccnnc2)ccc1F	48.7	50.9	46	34.4	33.4	23	–	–	–	–	–	–	–	–	–	–
O=C(O[C@@H]1O[C@@H]2COC(=O)c3cc(O)c(O)c(O)c3-c3c(cc(O)c(O)c3O)C(=O)O[C@H]([C@H]1O)[C@@H]2O)c1cc(O)c(O)c(O)c1	20.1	12.4	17.2	0.289	4	0.0807	–	–	–	–	–	–	–	–	–	–
CCN1CCN(c2ccc3nsnc3c2[N+](=O)[O-])CC1	32.8	36.7	17.8	30.6	47.1	27.7	–	–	–	–	–	–	–	–	–	–
Cc1cc2c(C(C)C)c(O)c(O)c(C=O)c2c(O)c1-c1c(C)cc2c(C(C)C)c(O)c(O)c(C=O)c2c1O	31.2	57.8	157	17.7	31.6	79.5	777	622	594	593	–	–	–	–	–	–
C[C@@]12C(=O)OC(=O)[C@]1(C)[C@H]1CC[C@@H]2O1	56.2	44.1	247	61.3	60.4	264	–	–	–	–	–	–	–	–	–	–
C[C@@H]1O[C@@H](O[C@H]2[C@H](O[C@H]3CC[C@@]4(C)[C@@H](CC[C@]5(C)[C@@H]4CC=C4[C@@H]6CC(C)(C)CC[C@]6(C(=O)O[C@@H]6O[C@H](CO[C@@H]7O[C@H](CO)[C@@H](O[C@@H]8O[C@@H](C)[C@H](O)[C@@H](O)[C@H]8O)[C@H](O)[C@H]7O)[C@@H](O)[C@H](O)[C@H]6O)CC[C@]45C)[C@]3(C)CO)OC[C@H](O)[C@@H]2O)[C@H](O)[C@H](O)[C@H]1O	39.9	50.2	38.4	41.1	41.5	31.7	–	–	–	–	–	–	–	–	–	–
O=C(O)C[C@@H]1C(=O)O[C@H]2[C@@H]3OC(=O)c4cc(O)c(O)c(O)c4-c4c(cc(O)c(O)c4O)C(=O)OC[C@H]2O[C@@H](OC(=O)c2cc(O)c(O)c(O)c2)[C@@H]3OC(=O)c2cc(O)c(O)c3c2[C@H]1[C@H](O)C(=O)O3	43.6	35.7	37	-0.503	0.831	-0.0443	–	–	–	–	–	–	–	–	–	–
C[C@@H]1O[C@@H](O[C@H]2[C@H](OC(=O)[C@]34CCC(C)(C)C[C@H]3C3=CC[C@@H]5[C@@]6(C)C[C@H](O)[C@H](O[C@@H]7O[C@H](CO)[C@@H](O)[C@H](O)[C@H]7O)[C@@](C)(CO)[C@@H]6CC[C@@]5(C)[C@]3(C)CC4)O[C@H](CO)[C@@H](O)[C@@H]2O)[C@H](O)[C@H](O)[C@H]1O[C@@H]1OC[C@@H](O)[C@H](O)[C@H]1O	64	46.7	27.1	51.1	35.6	23.9	–	–	–	–	–	–	–	–	–	–
CC(=O)c1c(O)c(C)c(O)c(Cc2c(O)c3c(c(C(=O)C=Cc4ccccc4)c2O)OC(C)(C)C=C3)c1O	24.4	33.5	44.5	27.8	22.5	1.51	67.3	294	0.922	0.755	–	–	–	–	–	–
CCCCCCCc1ccc(CCc2cccc(O)c2C(=O)O)cc1	33.6	14.3	49.1	43.5	35.3	398	59.2	84.2	662	925	–	–	–	–	–	–
CCOc1ccccc1-n1c(C(C)N2CCN(C(=O)COc3ccc(Cl)cc3)CC2)nc2ccccc2c1=O (stereo unspecified)	113	223	127	112	282	120	–	–	–	–	–	–	–	–	–	–
COC(=O)[C@]1(C)CC[C@]2(C)CC[C@]3(C)C4=CC=C5C(=CC(=O)C(O)=C5C)[C@]4(C)CC[C@@]3(C)[C@@H]2C1	678	650	663	885	941	–	–	–	–	–	–	–	–	–	–	–
O=c1c(O)c(-c2ccc(O)c(O)c2)oc2cc(O)cc(O)c12	33.3	57.9	104	19.7	22.6	3.88	–	–	–	–	–	–	–	–	–	–
COC[C@H]1OC(=O)c2coc3c2[C@@]1(C)C1=C(C3=O)[C@@H]2CCC(=O)[C@@]2(C)C[C@H]1OC(C)=O	75.6	99.5	434	60.7	75.1	299	–	–	–	–	49.8	47.5	65	38.8	35.2	47.7
COc1ccc2c(c[n+](C)c3c4cc5c(cc4ccc23)OCO5)c1OC	31.4	50.8	848	29.3	101	831	–	–	–	–	–	–	–	–	–	–
CCc1c2c(nc3ccc(OC(=O)N4CCC(N5CCCCC5)CC4)cc13)-c1cc3c(c(=O)n1C2)COC(=O)[C@]3(O)CC.Cl	23.8	15.9	24.6	56.7	45.6	72.6	–	–	–	–	–	–	–	–	–	–
O=C(c1ccc(/C=C/c2n[nH]c3ccccc23)cc1)N1CCNCC1	35.3	115	259	63.3	153	344	–	–	–	–	–	–	–	–	–	–
O=C1c2ccccc2[Se](=O)N1c1ccccc1 (stereo unspecified)	244	1150	678	261	1850	1780	–	–	–	–	–	–	–	–	–	–
S=P(N1CC1)(N1CC1)N1CC1	23.1	9.6	19.9	59.7	37.6	47.8	–	–	–	–	–	–	–	–	–	–
Cc1onc(C(=O)N2CCN(C(c3ccc(Cl)cc3)c3ccc(Cl)cc3)CC2)c1[N+](=O)[O-]	484	435	428	963	863	710	–	–	–	–	–	–	–	–	–	–
CCCC1(c2ccccc2)NC(=O)N(CC(=O)N(C)Cc2c(F)cccc2Cl)C1=O (stereo unspecified)	46.2	38.3	43.9	39	44.5	41.6	–	–	–	–	–	–	–	–	–	–

Complete entries from above. Order of values: AUC of caspase 3/7-positive object count (U-2 OS [1]; 5 µM)	AUC of caspase 3/7-positive object count (U-2 OS [1]; 10 µM)	AUC of caspase 3/7-positive object count (U-2 OS [1]; 20 µM)	AUC of Cytotox red (U-2 OS [2]; 5 µM)	AUC of Cytotox red (U-2 OS [2]; 10 µM)	AUC of Cytotox red (U-2 OS [2]; 20 µM)	AUC of caspase 3/7-positive object count (U-2 OS [1]; 40 µM)	AUC of caspase 3/7-positive object count (U-2 OS [1]; 80 µM)	AUC of Cytotox red (U-2 OS [2]; 40 µM)	AUC of Cytotox red (U-2 OS [2]; 80 µM)	AUC of caspase 3/7-positive object count (U-2 OS [1]; 0.625 µM)	AUC of caspase 3/7-positive object count (U-2 OS [1]; 1.25 µM)	AUC of caspase 3/7-positive object count (U-2 OS [1]; 2.5 µM)	AUC of Cytotox red (U-2 OS [2]; 0.625 µM)	AUC of Cytotox red (U-2 OS [2]; 1.25 µM)	AUC of Cytotox red (U-2 OS [2]; 2.5 µM)
`COC[C@H]1OC(=O)c2coc3c2[C@@]1(C)C1=C(C3=O)[C@@H]2CCC(=O)[C@@]2(C)C[C@H]1OC(C)=O` is listed with 75.6	99.5	434	60.7	75.1	299	–	–	–	–	49.8	47.5	65	38.8	35.2	47.7
`CC(=O)OC1C(c2ccc(=O)oc2)C2(C)CCC3C(CCC4CC(O)CCC43C)C23OC13` (stereo unspecified) is listed with 65.5	74.7	86.3	37.5	65.3	62.4	–	–	–	–	–	–	–	–	–	–
